The values that follow come from patent US20210214458A1 (ONCOC4, published 2021).

Results are given in words; binding and its absence hold for the method and conditions named. Some results given as binding are weak or reduced against the parent protein; the word gives no strength.

Experiment [1] has as its target anti-CD24 monoclonal antibody 3B6. As to the kind of experiment: peptide inhibition assay (FIG. 9).
For experiment [2] the target is unchanged. The experiment can be described thus: peptide inhibition ELISA: peptide pre-incubated with 3B6, plate coated with deglycosylated CD24Fc. In general terms: An ELISA detects its analyte on a solid surface through an enzyme-linked reagent.

B1: CD24 peptide 4 (peptide)
peptide: SNSGLAPNPT
On to B1, for which the binding result in experiment [1] and in experiment [2] was “binds” in each case.
